The results in this text go back to US20180194851A1 (Pfizer, published 2018).

No constants are given. Whether binding was seen depends on the method and setting.

The target of the assay is rat 4-1BB on PHA stimulated PBMC (rat). Briefly: flow cytometry, Alexa Fluor 647 conjugated antibody at 100 nM on PHA stimulated and unstimulated rat PBMC.

B1: MOR-7480 (IgG1) (antibody, V domains shown)
VH: QVQLVQSGAEVKKPGESLKISCKGSGYSFSTYWISWVRQMPGKGLEWMGKIYPGDSYTNYSPSFQGQVTISADKSISTAYLQWSSLKASDTAMYYCARGYGIFDYWGQGTLVTVSS
VL: DIELTQPPSVSVAPGQTARISCSGDNIGDQYAHWYQQKPGQAPVVVIYQDKNRPSGIPERFSGSNSGNTATLTISGTQAEDEADYYCATYTGFGSLAVFGGGTKLTVL
notes: Human IgG1 format, lambda light chain
As for B1, the binding entry was “no binding (tested: 100 nM)”.

B2: MOR-7480 (IgG2) (antibody, V domains shown)
VH: QVQLVQSGAEVKKPGESLKISCKGSGYSFSTYWISWVRQMPGKGLEWMGKIYPGDSYTNYSPSFQGQVTISADKSISTAYLQWSSLKASDTAMYYCARGYGIFDYWGQGTLVTVSS
VL: DIELTQPPSVSVAPGQTARISCSGDNIGDQYAHWYQQKPGQAPVVVIYQDKNRPSGIPERFSGSNSGNTATLTISGTQAEDEADYYCATYTGFGSLAVFGGGTKLTVLG
Take B2: the binding entry was “no binding (tested: 100 nM)”.

B3: MOR-7483 (IgG2) (antibody, V domains shown)
VH: QVQLVQSGAEVKKPGESLKISCKGSGYSFSTYWISWVRQMPGKGLEWMGKIYPGDSYTNYSPSFQGQVTISADKSISTAYLQWSSLKASDTAMYYCARGYGIFDYWGQGTLVTVSS
VL: DIELTQPPSVSVAPGQTARISCSGDNIGDQYAHWYQQKPGQAPVVVIYQDKNRPSGIPERFSGSNSGNTATLTISGTQAEDEADYYCSTYTFVGFTTVFGGGTKLTVLG
notes: also called 7483_G2
Consider B3, for which the binding entry is “no binding (tested: 100 nM)”.

B4: MOR-7483 (IgG1) (antibody, V domains shown)
VH: QVQLVQSGAEVKKPGESLKISCKGSGYSFSTYWISWVRQMPGKGLEWMGKIYPGDSYTNYSPSFQGQVTISADKSISTAYLQWSSLKASDTAMYYCARGYGIFDYWGQGTLVTVSS
VL: DIELTQPPSVSVAPGQTARISCSGDNIGDQYAHWYQQKPGQAPVVVIYQDKNRPSGIPERFSGSNSGNTATLTISGTQAEDEADYYCSTYTFVGFTTVFGGGTKLTVL
notes: Human IgG1 format, lambda light chain; also called 7483_G1
In the case of B4, the binding result is “no binding (tested: 100 nM)”.
